Results: article doi:10.1101/2020.04.22.056051
Results are given in words; binding and its absence hold for the method and conditions named. In cells and extracts the contact can be indirect. Some entries that bind do so weakly or less than the wild type.

Sequences of proteins named here, by UniProt entry; tags and fusion partners are left off.
UniProt Q9VCA8: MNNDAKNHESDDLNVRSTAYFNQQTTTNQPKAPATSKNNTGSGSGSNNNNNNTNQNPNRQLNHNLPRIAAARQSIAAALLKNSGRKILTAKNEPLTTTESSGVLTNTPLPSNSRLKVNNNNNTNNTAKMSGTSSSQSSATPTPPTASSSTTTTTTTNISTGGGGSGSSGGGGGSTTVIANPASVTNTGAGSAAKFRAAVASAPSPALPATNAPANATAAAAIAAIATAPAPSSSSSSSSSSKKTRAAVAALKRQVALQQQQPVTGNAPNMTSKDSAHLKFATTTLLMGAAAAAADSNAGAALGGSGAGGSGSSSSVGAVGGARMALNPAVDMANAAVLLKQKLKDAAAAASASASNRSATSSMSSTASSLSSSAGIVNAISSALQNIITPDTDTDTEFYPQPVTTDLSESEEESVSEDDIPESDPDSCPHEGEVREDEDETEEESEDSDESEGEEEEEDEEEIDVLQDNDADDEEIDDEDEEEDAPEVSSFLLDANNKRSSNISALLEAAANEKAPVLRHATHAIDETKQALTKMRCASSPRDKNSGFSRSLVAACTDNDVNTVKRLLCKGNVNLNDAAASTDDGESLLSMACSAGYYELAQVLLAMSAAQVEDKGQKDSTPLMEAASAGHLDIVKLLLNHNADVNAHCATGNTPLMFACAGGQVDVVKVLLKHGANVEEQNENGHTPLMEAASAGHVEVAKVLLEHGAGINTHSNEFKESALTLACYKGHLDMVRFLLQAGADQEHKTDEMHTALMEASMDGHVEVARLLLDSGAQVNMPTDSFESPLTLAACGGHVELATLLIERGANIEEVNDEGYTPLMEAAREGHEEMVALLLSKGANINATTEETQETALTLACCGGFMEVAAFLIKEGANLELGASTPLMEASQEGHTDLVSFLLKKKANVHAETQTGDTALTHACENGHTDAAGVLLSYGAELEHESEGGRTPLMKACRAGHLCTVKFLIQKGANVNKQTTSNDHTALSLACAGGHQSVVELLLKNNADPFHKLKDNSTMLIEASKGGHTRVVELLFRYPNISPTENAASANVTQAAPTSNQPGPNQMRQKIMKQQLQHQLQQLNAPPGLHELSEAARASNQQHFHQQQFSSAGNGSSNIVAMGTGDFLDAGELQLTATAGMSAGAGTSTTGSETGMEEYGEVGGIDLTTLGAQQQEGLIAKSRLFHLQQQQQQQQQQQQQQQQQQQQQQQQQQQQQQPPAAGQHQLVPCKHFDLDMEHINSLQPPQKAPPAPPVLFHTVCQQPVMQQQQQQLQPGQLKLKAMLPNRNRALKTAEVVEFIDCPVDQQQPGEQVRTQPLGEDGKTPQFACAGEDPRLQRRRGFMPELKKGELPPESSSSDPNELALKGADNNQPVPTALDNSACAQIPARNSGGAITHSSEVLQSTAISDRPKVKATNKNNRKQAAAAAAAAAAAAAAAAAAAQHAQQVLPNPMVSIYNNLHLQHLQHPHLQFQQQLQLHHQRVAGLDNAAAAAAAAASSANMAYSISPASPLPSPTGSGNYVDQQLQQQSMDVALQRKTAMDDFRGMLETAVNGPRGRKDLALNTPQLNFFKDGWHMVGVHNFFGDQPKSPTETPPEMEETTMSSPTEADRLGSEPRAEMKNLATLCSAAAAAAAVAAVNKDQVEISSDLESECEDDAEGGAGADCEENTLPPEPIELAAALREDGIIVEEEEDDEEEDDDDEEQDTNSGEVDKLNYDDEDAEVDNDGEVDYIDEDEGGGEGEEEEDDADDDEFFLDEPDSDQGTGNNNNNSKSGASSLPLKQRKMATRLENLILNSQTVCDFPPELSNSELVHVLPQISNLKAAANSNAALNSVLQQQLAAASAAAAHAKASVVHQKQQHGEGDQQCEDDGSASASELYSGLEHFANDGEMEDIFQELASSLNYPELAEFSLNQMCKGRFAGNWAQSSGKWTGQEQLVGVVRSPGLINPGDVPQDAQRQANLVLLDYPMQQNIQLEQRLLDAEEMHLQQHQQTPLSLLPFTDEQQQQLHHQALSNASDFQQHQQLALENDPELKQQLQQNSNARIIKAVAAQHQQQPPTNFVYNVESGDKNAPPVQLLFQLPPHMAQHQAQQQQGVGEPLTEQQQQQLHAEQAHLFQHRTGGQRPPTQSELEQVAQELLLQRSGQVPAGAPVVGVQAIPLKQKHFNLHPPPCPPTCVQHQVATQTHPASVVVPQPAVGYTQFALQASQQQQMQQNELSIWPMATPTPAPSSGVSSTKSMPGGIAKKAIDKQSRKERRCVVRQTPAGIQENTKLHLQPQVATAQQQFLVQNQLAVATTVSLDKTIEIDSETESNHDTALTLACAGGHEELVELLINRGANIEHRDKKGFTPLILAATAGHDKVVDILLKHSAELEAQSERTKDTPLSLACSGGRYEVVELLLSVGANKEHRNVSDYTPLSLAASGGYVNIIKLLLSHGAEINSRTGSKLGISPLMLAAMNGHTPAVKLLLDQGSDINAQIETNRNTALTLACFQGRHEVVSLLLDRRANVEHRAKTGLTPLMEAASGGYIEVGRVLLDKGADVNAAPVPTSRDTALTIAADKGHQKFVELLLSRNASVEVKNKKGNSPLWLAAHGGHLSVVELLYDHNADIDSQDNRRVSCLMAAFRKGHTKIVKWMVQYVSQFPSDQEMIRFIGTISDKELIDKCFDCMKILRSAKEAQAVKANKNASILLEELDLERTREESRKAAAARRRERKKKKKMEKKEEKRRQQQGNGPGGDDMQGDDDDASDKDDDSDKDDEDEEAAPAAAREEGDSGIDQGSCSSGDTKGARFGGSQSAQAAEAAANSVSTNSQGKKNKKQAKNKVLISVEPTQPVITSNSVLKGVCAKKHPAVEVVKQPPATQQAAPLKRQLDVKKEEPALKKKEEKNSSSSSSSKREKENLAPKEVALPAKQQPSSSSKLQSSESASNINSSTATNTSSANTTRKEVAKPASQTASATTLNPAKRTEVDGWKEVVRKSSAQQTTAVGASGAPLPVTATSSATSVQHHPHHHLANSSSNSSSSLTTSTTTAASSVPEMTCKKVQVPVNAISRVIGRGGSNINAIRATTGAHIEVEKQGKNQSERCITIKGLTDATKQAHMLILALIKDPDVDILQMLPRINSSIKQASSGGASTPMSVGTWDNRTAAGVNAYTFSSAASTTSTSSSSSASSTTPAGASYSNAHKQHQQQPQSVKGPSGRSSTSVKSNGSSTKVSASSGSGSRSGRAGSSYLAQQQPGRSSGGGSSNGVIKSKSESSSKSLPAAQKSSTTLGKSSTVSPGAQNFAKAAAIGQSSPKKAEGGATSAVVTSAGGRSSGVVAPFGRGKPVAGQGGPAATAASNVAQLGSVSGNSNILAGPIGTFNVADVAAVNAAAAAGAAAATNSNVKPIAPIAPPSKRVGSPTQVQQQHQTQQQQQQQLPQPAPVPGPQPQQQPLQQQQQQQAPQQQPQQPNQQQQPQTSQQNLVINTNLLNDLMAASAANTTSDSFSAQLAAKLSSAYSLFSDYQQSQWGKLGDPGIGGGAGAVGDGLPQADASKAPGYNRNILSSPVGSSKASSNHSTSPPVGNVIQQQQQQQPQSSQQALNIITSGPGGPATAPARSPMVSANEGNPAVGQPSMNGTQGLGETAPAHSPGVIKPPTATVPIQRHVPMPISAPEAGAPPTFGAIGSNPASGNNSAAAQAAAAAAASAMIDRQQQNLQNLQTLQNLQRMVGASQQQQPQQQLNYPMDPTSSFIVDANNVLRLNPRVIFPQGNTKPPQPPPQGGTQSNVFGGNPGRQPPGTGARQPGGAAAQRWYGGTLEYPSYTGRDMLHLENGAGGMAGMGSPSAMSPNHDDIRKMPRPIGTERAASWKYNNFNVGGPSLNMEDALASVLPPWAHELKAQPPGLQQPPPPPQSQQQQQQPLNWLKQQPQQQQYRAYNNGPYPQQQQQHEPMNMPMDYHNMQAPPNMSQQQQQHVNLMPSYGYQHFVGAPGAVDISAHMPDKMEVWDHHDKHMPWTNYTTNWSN

Biological target: Mask (endogenous) (Drosophila (endogenous in larval brains)) (UniProt Q9VCA8)
Test: co-IP

binding: binds
B1: mCherry-Jupiter (protein, UniProt Q9I7K0 1-208)
chain: MAAYAAFKHVELYNVGKAKKRVLRPPGGGSSDIFGSEMPQTPRNVKNRMASNIFAAEKDNGVKNNVRQGAHRFYFIGDAPRRGQKTVDSHSRLFGEPTRPITPGKNHMKSSIPFGQNTEAVAAQKLLTTNGHYNGKSGSVSSASSSVSSSTENLKMNSGSRSEGNPVTGEGYKVVANEYSQRQESSNGGTPVINKNRIPPGGYSSGLW
